The record followed here is patent publication EP4242303A1 (Novozymes A/S, dated 2023).

No constants are given. Whether binding was seen depends on the method and setting. Some results given as binding are weak or reduced against the parent protein; the word gives no strength.

Assay [1] concerns the target T1, deamidase polypeptide from Chryseobacterium sp-62563 (deamidase domain of the pro-form SEQ ID NO: 5) (Chryseobacterium sp-62563).
T1 sequence: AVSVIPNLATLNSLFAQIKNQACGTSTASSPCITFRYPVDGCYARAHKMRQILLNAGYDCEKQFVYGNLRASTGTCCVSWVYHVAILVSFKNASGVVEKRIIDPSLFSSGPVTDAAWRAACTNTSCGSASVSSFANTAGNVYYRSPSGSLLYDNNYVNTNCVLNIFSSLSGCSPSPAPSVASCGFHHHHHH
Put plainly: nanoDSF of the fusion polypeptide SEQ ID NO: 5. A general note: DSF heats the sample and reads unfolding from a dye or from intrinsic fluorescence.

The target is the same in assay [2]. Put plainly: nanoDSF of the variant fusion polypeptide (Y94P).
Assay [3] shares this target. Put plainly: nanoDSF of the variant fusion polypeptide (F99A).
The target is the same in assay [4]. Nature of the assay: nanoDSF of the variant fusion polypeptide (Y45G).
Assay [5] shares this target. Nature of the assay: nanoDSF of the variant fusion polypeptide (Y45T).
For assay [6] the target is unchanged. Nature of the assay: nanoDSF of the variant fusion polypeptide (F99K).
Assay [7] has the same target. Put plainly: nanoDSF of the variant fusion polypeptide (F99G).
Assay [8] shares this target. Put plainly: nanoDSF of the variant fusion polypeptide (F38C).
For assay [9] the target is unchanged. Nature of the assay: nanoDSF of the variant fusion polypeptide (V23S).

B1: propeptide from Chryseobacterium sp-62563 (wildtype propeptide domain of the protein glutamine deamidase pro-form SEQ ID NO: 5) (other)
chain: NQDPNLVAKESNETAMKDFGKTVPVGIEKEDGKFKISFMVTAQPYEIKDSKENAAYISMIKTAVENETPIHVFLKANTNEIAKVDKATDDDIRYFKSVFTKEVKEENRK
With B1, in [1], the binding entry is given as “binds”.

B2: variant deamidase propeptide Y94P of Chryseobacterium sp-62563 (SEQ ID NO: 2) (other)
chain: NQDPNLVAKESNETAMKDFGKTVPVGIEKEDGKFKISFMVTAQPYEIKDSKENAAYISMIKTAVENETPIHVFLKANTNEIAKVDKATDDDIRPFKSVFTKEVKEENRK
Regarding B2, the binding entry in [2] is recorded as “binds”.

B3: variant deamidase propeptide F99A of Chryseobacterium sp-62563 (SEQ ID NO: 2) (other)
chain: NQDPNLVAKESNETAMKDFGKTVPVGIEKEDGKFKISFMVTAQPYEIKDSKENAAYISMIKTAVENETPIHVFLKANTNEIAKVDKATDDDIRYFKSVATKEVKEENRK
Consider B3, for which, in [3], the binding entry is “binds”.

B4: variant deamidase propeptide Y45G of Chryseobacterium sp-62563 (SEQ ID NO: 2) (other)
chain: NQDPNLVAKESNETAMKDFGKTVPVGIEKEDGKFKISFMVTAQPGEIKDSKENAAYISMIKTAVENETPIHVFLKANTNEIAKVDKATDDDIRYFKSVFTKEVKEENRK
B4: the binding result in assay [4] is reported as “binds”.

B5: variant deamidase propeptide Y45T of Chryseobacterium sp-62563 (SEQ ID NO: 2) (other)
chain: NQDPNLVAKESNETAMKDFGKTVPVGIEKEDGKFKISFMVTAQPTEIKDSKENAAYISMIKTAVENETPIHVFLKANTNEIAKVDKATDDDIRYFKSVFTKEVKEENRK
For B5, in [5], the binding entry is listed as “binds”.

B6: variant deamidase propeptide F99K of Chryseobacterium sp-62563 (SEQ ID NO: 2) (other)
chain: NQDPNLVAKESNETAMKDFGKTVPVGIEKEDGKFKISFMVTAQPYEIKDSKENAAYISMIKTAVENETPIHVFLKANTNEIAKVDKATDDDIRYFKSVKTKEVKEENRK
For B6, in assay [6], the binding entry was “binds”.

B7: variant deamidase propeptide F99G of Chryseobacterium sp-62563 (SEQ ID NO: 2) (other)
chain: NQDPNLVAKESNETAMKDFGKTVPVGIEKEDGKFKISFMVTAQPYEIKDSKENAAYISMIKTAVENETPIHVFLKANTNEIAKVDKATDDDIRYFKSVGTKEVKEENRK
For B7, the binding entry in assay [7] is reported as “binds”.

B8: variant deamidase propeptide F38C of Chryseobacterium sp-62563 (SEQ ID NO: 2) (other)
chain: NQDPNLVAKESNETAMKDFGKTVPVGIEKEDGKFKISCMVTAQPYEIKDSKENAAYISMIKTAVENETPIHVFLKANTNEIAKVDKATDDDIRYFKSVFTKEVKEENRK
Turning to B8, the binding result in assay [8] is on record as “binds”.

B9: variant deamidase propeptide V23S of Chryseobacterium sp-62563 (SEQ ID NO: 2) (other)
chain: NQDPNLVAKESNETAMKDFGKTSPVGIEKEDGKFKISFMVTAQPYEIKDSKENAAYISMIKTAVENETPIHVFLKANTNEIAKVDKATDDDIRYFKSVFTKEVKEENRK
On to B9, for which, in assay [9], the binding result is “binds”.
